{"source": "patent US5204341A", "about": "“1-arylsulphonyl-2-pyrrolidone derivatives, their preparation process and the new intermediates obtained, their use as medicaments and the pharmaceutical compositions containing them” (priority 1990, dated 1993)", "system": "histamine-induced contractions of isolated ileum", "assay": "Antagonism of histamine-induced contractions of isolated guinea-pig ileum", "type": "cell-based", "conditions": "Cavia porcellus, read-out: Antagonistic to Histam., IC50", "method": "The interaction of the compounds with different receptors was evaluated on the isolated ileum of a guinea-pig according to the following method.\n2.5-3 cm segments of the guinea-pigs, ileum were washed and immediately suspended in a bath containing 10 ml of a Tyrode solution at 37° C. and aerated with a mixture of oxygen (95%) and carbon dioxide (5%). After a stabilization period of at least 30 minutes, the contractions are recorded, maintaining the preparation under constant pressure of 1 g, using a sensor connected to a polygraph. […] The following dose was only added to the bath after the preparation returned to its base line. Arecoline was used as reference product. The antagonistic action was evaluated on contractions induced by acetylcholine (1×10^-6 M), histamine (1×10^-5 M) and barium chloride (2×10^-5 M). […] The contact time before adding the agonist was one minute.\nFor each compound the dose-response curves are obtained with 4 to 6 different concentrations and 3 to 5 independent tests. The agonistic activity is expressed by pD2 (negative logarithm of the dose which produces 50% of the maximum effect). The antagonistic activity is expressed by IC50 (concentration inhibiting 50% of the maximum response)."}
{"compound": "CN(C)CCOC(c1ccccc1)c1ccccc1", "note": "[Diphenydramin, diphenydramine, reference compound]", "values": [{"measurement": "IC50", "value": 830, "unit": "nM"}]}
